This passage reports AC50 results from PubChem BioAssay AID662 (National Center for Advancing Translational Sciences (NCATS), 2007).

Where “and” joins values, the source holds several entries; their conditions need not be identical. Identical values can stand only once. This is one part of the list. Further columns of the screen follow, without active or inactive calls. Most of these compounds were active or inconclusive in the main read-out, so they are no random draw. Potencies come from curve fits of mixed quality, noted in brackets.

A short description of this test: Cell signaling CRE-BLA (Fsk stim). The following applies: CHO CRE-bla reporter (cAMP response element driving beta-lactamase), forskolin EC10, beta-lactamase ratio; measured here: 460 nm blue channel. In short, it runs like this:
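CRE-bla CHO reporter cells treated with compound titration plus EC10 NKH 477 (water-soluble forskolin), incubated 3 h at 37 °C; CCF4 loading 2 h at room temperature, 460/530 nm emission ratio read, AC50 values derived for positive or negative modulators.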
On to `COc1cccc(Cn2c(=O)c(-c3cccs3)nc3cnc(OCc4ccccc4)nc32)c1`, for which the AC50 is 5.01 µM [rising, partial curve].

Turning to `COCCn1c(=O)c(-c2cccs2)nc2cncnc21`, the AC50 was 10 µM [rising, partial curve].

For `COc1cc2c(c(OC)c1OC)-c1ccc(OC)c(=O)cc1[C@H](NC(C)=O)CC2`, the AC50 was 12.6 µM [rising, partial curve] and 2.51 µM [rising, full curve] and 2 µM [rising, full curve].

On to `c1ccc(OCCOc2ncnc3sccc23)cc1`, for which the AC50 is 0.01 µM [falling, partial curve, poor fit].

`CN(C)c1ncnc2ccc(-c3ccccc3C(F)(F)F)cc12`: the AC50 is 10 µM [rising, partial curve].

For the compound `Cc1ccc(CN(C)C(=O)C2CCCN2C(=O)c2cccs2)o1` (configuration not stated), the AC50 is 2.51 µM [falling, partial curve].

As for `O=C1c2ccccc2CC1Sc1nnc(-c2ccncc2)o1` (configuration not stated), the AC50 was 20 µM [falling, partial curve, poor fit].

In the case of `CNc1nc(-c2c(C)noc2C)nc2ccccc12`, the AC50 is 5.01 µM [rising, full curve, poor fit].

For the compound `O=C(Nc1nc(-c2nc3ccccc3s2)cs1)C1COc2ccccc2O1` (configuration not stated), the AC50 is 3.98 µM [rising, full curve].

For the compound `COCCCNC(=O)CCc1nc2cccnc2n1Cc1ccccc1`, the AC50 is 5.01 µM [rising, single point].

With `Fc1ccc(-c2nnc(CN3CCC(c4nc5ccccc5s4)CC3)o2)cc1`, the AC50 is 5.01 µM [rising, single point].

Turning to `COc1cc(-c2nc3cnccc3n2C)cc(OC)c1OC`, the AC50 is 12.6 µM [rising, partial curve].

`O=C(O)c1cccnc1SC1CC(=O)N(Cc2ccccc2)C1=O` (configuration not stated): the AC50 was 0.00398 µM [falling, full curve, poor fit].

Take `C[C@](Cc1ccc(O)c(O)c1)(NN)C(=O)O`: the AC50 was 12.6 µM [falling, single point].

With `O=C(CSc1nc2ncccc2[nH]1)NCc1ccccc1`, the AC50 was 0.316 µM [rising, partial curve, poor fit].

Consider `CCOc1ccc(S(=O)(=O)n2c(C)nc3ccccc32)cc1`, for which the AC50 is 3.16 µM [rising, single point].

Consider `O=C(CCN1C(=O)C2C3C=CC(C3)C2C1=O)Nc1c(F)cc(F)cc1Br` (configuration not stated), for which the AC50 was 0.316 µM [falling, full curve].

In the case of `Cc1cc(Nc2nc3c(c(=O)n(C)c(=O)n3C)n2C)n(-c2ccc(Cl)cc2)n1`, the AC50 is 12.6 µM [rising, single point].

On to `COc1ccc(N2Cc3cccc(C(=O)N4CCOCC4)c3C2=O)cc1`, for which the AC50 was 0.00398 µM [falling, full curve, poor fit].

For `O=C(CSc1nc2c(cnn2-c2ccc(F)cc2)c(=O)[nH]1)N1CCCCC1`, the AC50 was 10 µM [rising, partial curve].

For `CCOC(=O)N1CCC(NC(=O)Cn2cccc2C(=O)c2ccccc2)CC1`, the AC50 is 0.631 µM [falling, partial curve].

As to `COc1ccc(-c2nnn(CCc3nn[nH]n3)n2)cc1OC`, the AC50 was 12.6 µM [falling, single point].

Regarding `CC(C)OC(=O)CC(=O)CSc1nc2c(cc1C#N)CCC2`, the AC50 was 12.6 µM [rising, partial curve].

With `O=C(NCCN1CCCC1=O)Nc1ccccc1`, the AC50 was 1 µM [rising, partial curve].

As for `CCOC(=O)c1[nH]c(C)c(C(=O)Nc2cc(OC)ccc2OC)c1C`, the AC50 was 10 µM [rising, partial curve].

Take `O=c1nc2c(-c3ccccc3F)n[nH]n2c2ccccc12`: the AC50 is 0.0794 µM [rising, full curve].

Turning to `COCCn1cnc2c(c1=O)c1nc3ccccc3nc1n2/N=C/c1cccc(OC)c1OC`, the AC50 is 15.8 µM [rising, partial curve].

Consider `CC1(C)Cc2c(c(N3CCOCC3)nc3sc(C(=O)N4CCCCC4)c(N)c23)CO1`, for which the AC50 was 3.98 µM [rising, partial curve].

For the compound `CC1CCc2cccc3c2N1c1cc(C#N)c(C#N)cc1O3` (configuration not stated), the AC50 is 10 µM [rising, partial curve].

Turning to `CN(C)C(=O)c1nc(C#N)c(N(C)C)o1`, the AC50 is 0.126 µM [falling, single point].

With `N#CCCn1c(=O)cnc2cnc(OCc3ccccc3)nc21`, the AC50 is 12.6 µM [rising, partial curve].

Consider `CCCc1ccc(OCc2ccc(C(=O)N3CCN(c4ccccn4)CC3)o2)c(OC)c1`, for which the AC50 is 25.1 µM [falling, single point].

As for `Cc1nc(NC2CCCCC2)c2nc(-c3ccccc3)n(CCCN3CCOCC3)c2n1`, the AC50 is 10 µM [rising, partial curve].

For `Cc1cc(C(F)F)n2ncc(C(=O)NCc3ccccc3)c2n1`, the AC50 was 12.6 µM [rising, partial curve].

Regarding `CCCn1c(NC(=O)c2ccc(Cl)c(S(=O)(=O)N3CCCC3)c2)nc2ccccc21`, the AC50 was 0.398 µM [falling, partial curve].

As to `C=C(C)Cn1c(CCNC(=O)C(C)(C)C)nc2ccccc21`, the AC50 was 0.0126 µM [falling, full curve, poor fit].

Regarding `Cc1ccc(S(=O)(=O)c2cc3c(=O)n4ccccc4nc3n(Cc3ccco3)c2=N)cc1C`, the AC50 is 10 µM [rising, partial curve].

On to `CCCc1nc(N)c(C#N)c(N)c1C#N`, for which the AC50 is 12.6 µM [rising, partial curve].

For `COc1cc(C2C(C#N)=C(N)Oc3c2oc(CO)cc3=O)ccc1OC(C)C` (configuration not stated), the AC50 is 0.251 µM [rising, full curve, poor fit].

`Cc1ccc2c(c1)-c1c(cnn1CC(=O)N1CCCN(Cc3ccccc3F)C1)CO2`: the AC50 is 10 µM [falling, single point].

Consider `COc1cccc(-c2nc(C(N)=O)c3[nH]c(=O)n(-c4ccccc4)c3n2)c1OC`, for which the AC50 was 10 µM [rising, partial curve].

Turning to `Cc1cccc(NC(=O)c2oc3ccc(S(=O)(=O)N4CCOCC4)cc3c2C)c1C`, the AC50 is 3.16 µM [falling, partial curve].

With `O=C(c1ccncc1)N1CCC2(CCCN(c3ccc(-c4ccccc4)cc3)C2)CC1`, the AC50 is 25.1 µM [rising, single point].

With `CCCCNS(=O)(=O)c1ccc2nc(SCC(=O)Nc3sccc3C#N)[nH]c2c1`, the AC50 was 25.1 µM [falling, single point].

For `O=P(O)(CCCP(=O)(O)CCc1ccccc1)CCc1ccccc1`, the AC50 is 6.31 µM [falling, full curve, poor fit].

With `Cc1ccc(OCC(O)CN2CCN(CC(O)COc3ccc(C)cc3Cl)CC2)c(Cl)c1` (configuration not stated), the AC50 was 0.631 µM [falling, full curve, poor fit].

For `COc1ccc(CNc2nc(-c3cccc(C#N)c3)nc3ccccc23)c(OC)c1`, the AC50 was 1.26 µM [rising, full curve].

`O=C1c2ccccc2C(=O)N1CCCc1nc2ccccc2c(=O)n1-c1cccnc1`: the AC50 was 10 µM [rising, partial curve].

As for `O=c1c(-c2cccs2)nc2cnc(N3CCNCC3)nc2n1C1CC1`, the AC50 was 7.94 µM [rising, partial curve].

Consider `c1ccc2c(c1)ncn2Cc1nnc2sc(-c3ccc4c(c3)OCO4)nn12`, for which the AC50 is 12.6 µM [rising, single point].

For `CCCn1nc(NC(=O)c2cccs2)c2cc3cc(OC)ccc3nc21`, the AC50 was 10 µM [rising, partial curve].

On to `CC12CCC(C(=O)Nc3ccc4c(c3)OCCO4)(OC1=O)C2(C)C` (configuration not stated), for which the AC50 was 1.58 µM [rising, partial curve].

On to `O=C(OCC(=O)N1c2ccccc2Sc2ccccc21)C1CC(=O)N(Cc2ccco2)C1` (configuration not stated), for which the AC50 was 25.1 µM [falling, single point].

`COC(=O)c1ccccc1NC(=O)c1ccccc1SC`: the AC50 is 10 µM [rising, partial curve].

Regarding `O=c1cc(C23CC4CC(CC(C4)C2)C3)[nH][nH]1`, the AC50 was 0.501 µM [rising, single point].

As to `COc1cc2c(cc1OC)C(c1cc3cc(OC)c(OC)cc3[nH]c1=O)N(C(=O)C1CC1)CC2` (configuration not stated), the half-maximal activity concentration (AC50) is 10 µM [rising, partial curve].

On to `COc1ccc(OC)c(C2C(C(=O)c3cc4ccccc4o3)=C(O)C(=O)N2c2cc(C)on2)c1` (configuration not stated), for which the AC50 was 10 µM [rising, single point].

`CCCn1c(=NC(=O)c2ccncc2)c(C#N)cc2c(=O)n3cccc(C)c3nc21`: the AC50 is 1 µM [rising, full curve].

For the compound `O=C(CCS(=O)(=O)c1ccc(Br)s1)NCc1cccs1`, the AC50 is 0.398 µM [falling, partial curve].

In the case of `O=P(O)(O)c1ccccc1OCCCCCOc1ccccc1P(=O)(O)O`, the concentration at half-maximal activity (AC50) was 0.126 µM [falling, full curve].

For `Cc1csc(NC(=O)CSc2nc3ccccc3c(=O)[nH]2)n1`, the AC50 was 25.1 µM [rising, single point].

For the compound `O=C(Nc1ccc(N2CCCC2)cc1)c1cccc(F)c1`, the AC50 was 0.126 µM [rising, full curve, poor fit].

For the compound `COc1cc2c(cc1OC)C1=C(C#N)CC/C(=N\S(=O)(=O)c3ccccc3)N1CC2`, the AC50 is 0.316 µM [rising, full curve].

Turning to `CC(=O)Nc1ccc(NC(=O)Cn2cc3c(n2)CCCC3)cc1`, the AC50 is 0.0251 µM [falling, full curve].

On to `CCN1CCc2c(sc3c2c(NCc2ccco2)nc2nnnn23)C1`, for which the AC50 was 12.6 µM [rising, single point].

Consider `CC(C)Oc1ccc(C(=O)Nc2ccc(N(C)C)cc2)cc1`, for which the AC50 is 0.794 µM [rising, partial curve].

In the case of `CCNc1sc(C(=O)c2cccs2)c(N)c1-c1nc2ccccc2s1`, the AC50 is 0.2 µM [falling, full curve].
